In PubChem BioAssay AID180 (DTP/NCI, 2004):
The list is a part of this screen's results and no random one: it is rich in T/C values a quarter to a half above the control, in often repeated tests (any T/C) and in doses without a T/C. Other doses and runs of a compound stand elsewhere. T/C gives the treated animals as a percentage of the vehicle group. Schedules are NCI's codes, read here as Q, the interval in days (D) or hours (H), X, the number of doses. Some T/C values are followed by the survivors on the day toxicity was checked, most often the fifth; where none is given, no animal had died by that day. Some entries give survivors of the animals treated and no T/C: the source holds a T/C of zero for them, seemingly a mark for toxic or unscored doses. Counts of survivors are from the toxicity check (mostly the fifth day) where no day follows; animals may have died later. Some entries were tested several times; the values are given in rising order.

Tested on: BDF1 mice, Adenocarcinoma 755 s.c., tumor weight T/C
Assay: NCI In Vivo Anticancer Drug Screen. Data for tumor model Adenocarcinoma 755 (subcutaneous) in B6D2F1 (BDF1) mice
Details: T/C endpoint: mean tumor weight, higher T/C = larger tumour; for T/C: evaluated on day 12
Procedure, shortened: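 Transplantable tumor implanted; mice dosed with compound or vehicle; survival or tumor size recorded; ratio of treated to vehicle control reported.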

[1] = dose: 16.0 mg/kg/injection, schedule: Q01DX011 (ip), vehicle: carboxymethylcellulose (CMC)

## C[C@]12CCC(=O)C=C1CC[C@@H]1[C@@H]2[C@@H](O)C[C@@]2(C)[C@H]1CC[C@]2(O)C(=O)CF
dose: 400.0 mg/kg/injection, schedule: Q01DX011 (sc), vehicle: steroid suspending solution
  survivor count: 6 of 10

## CCCCN(C)N=Nc1ccc(S(N)(=O)=O)cc1
[1]
  T/C: 140 % of control

## Nc1nc(SCc2cccnc2)c2[nH]cnc2n1
dose: 20.0 mg/kg/injection, schedule: Q01DX011 (ip), vehicle: methylcellulose (MC)
  survivor count: 6 of 10
dose: 65.0 mg/kg/injection, schedule: Q01DX011 (ip), vehicle: methylcellulose (MC)
  survivor count: 1 of 10

## O=C(CCBr)N1CCCN(C(=O)CCBr)CC1
dose: 113.0 mg/kg/injection, schedule: Q01DX011 (ip), vehicle: methylcellulose (MC)
  survivor count: 4 of 10
dose: 226.0 mg/kg/injection, schedule: Q01DX011 (ip), vehicle: methylcellulose (MC)
  survivor count: 1 of 10

## NS(=O)(=O)c1nc(S(=O)(=O)O)c2[nH]cnc2n1
dose: 15.5 mg/kg/injection, schedule: Q01DX011 (ip), vehicle: carboxymethylcellulose (CMC)
  T/C: 143 % of control

## CC(=O)OCC(=O)[C@@]1(O)CC[C@H]2[C@@H]3CCC4=CC(=O)C=C[C@]4(C)[C@@]3(F)[C@@H](O)C[C@@]21C
dose: 35.0 mg/kg/injection, schedule: Q01DX011 (sc), vehicle: steroid suspending solution
  survivor count: 2 of 12

## O=C(O)C(=O)c1ccc(-c2ccccc2)cc1
dose: 30.0 mg/kg/injection, schedule: Q01DX011 (ip), vehicle: carboxymethylcellulose (CMC)
  T/C: 131 % of control [9 of 10 alive]

## CCC(=O)N(CC)CC
dose: 500.0 mg/kg/injection, schedule: Q01DX011 (ip), vehicle: other
  survivor count: 1 of 10

## CC1CN1P1(N2CC2C)=NP(N2CC2C)(N2CC2C)=NP(N2CC2C)(N2CC2C)=N1 (centres undefined)
dose: 75.0 mg/kg/injection, schedule: Q01DX011 (ip), vehicle: saline
  survivor count: 0 of 10
dose: 150.0 mg/kg/injection, schedule: Q01DX011 (ip), vehicle: saline
  survivor count: 0 of 10
dose: 300.0 mg/kg/injection, schedule: Q01DX011 (ip), vehicle: saline
  survivor count: 0 of 10
dose: 600.0 mg/kg/injection, schedule: Q01DX011 (ip), vehicle: saline
  survivor count: 0 of 10

## CSc1cc(NCc2ccccc2)nc(N)n1
dose: 225.0 mg/kg/injection, schedule: Q01DX011 (ip), vehicle: methylcellulose (MC)
  survivor count: 4 of 10

## C=CC1OCCN1CC (centres undefined)
dose: 25.0 mg/kg/injection, schedule: Q01DX011 (ip), vehicle: other
  T/C: 129 % of control [9 of 10 alive]

## C1CN1P1(N2CC2)=NP(N2CC2)(N2CC2)=NP(N2CC2)(N2CC2)=N1
dose: 24.0 mg/kg/injection, schedule: Q01DX011 (ip), vehicle: carboxymethylcellulose (CMC)
  survivor count: 3 of 10

## O=C1C=C(N2CC2)C(=O)C(N2CC2)=C1N1CC1
dose: 0.2 mg/kg/injection, schedule: Q01DX011 (ip), vehicle: saline
  survivor count: 0 of 10 and 1 of 10

## CS(=O)(=O)OCCC(=O)NCNC(=O)CCOS(C)(=O)=O
dose: 6.0 mg/kg/injection, schedule: Q01DX011 (ip), vehicle: methylcellulose (MC)
  T/C: 127 % of control

## CCOCCNc1ncnc2c1cnn2C
dose: 100.0 mg/kg/injection, schedule: Q01DX011 (ip), vehicle: methylcellulose (MC)
  survivor count: 4 of 10

## CC1CC(C)C(=O)C(C(=O)CC2CC(=O)NC(=O)C2)C1 (centres undefined)
dose: 250.0 mg/kg/injection, schedule: Q01DX011 (ip), vehicle: carboxymethylcellulose (CMC)
  survivor count: 4 of 10

## CC1(c2ccccc2)O[C@@H]2C[C@H]3[C@@H]4CCC5=CC(=O)C=C[C@]5(C)[C@@]4(F)[C@@H](O)C[C@]3(C)[C@]2(C(=O)CO)O1 (some centres undefined)
dose: 22.0 mg/kg/injection, schedule: Q01DX011 (sc), vehicle: steroid suspending solution
  survivor count: 5 of 10 and 10 of 16

## CCCCCCCCCCCCCCCC[n+]1ccccc1
dose: 1.0 mg/kg/injection, schedule: Q01DX011 (ip), vehicle: water
  survivor count: 4 of 10

## COc1cc(-c2ccc(Nc3ccccc3C(=O)O)c(OC)c2)ccc1Nc1ccccc1C(=O)O
dose: 200.0 mg/kg/injection, schedule: Q01DX011 (ip), vehicle: saline
  survivor count: 0 of 10

## CN(CC#N)/N=N/c1nc[nH]c1C(N)=O
dose: 150.0 mg/kg/injection, schedule: Q01DX011 (ip), vehicle: carboxymethylcellulose (CMC)
  survivor count: 6 of 10
dose: 300.0 mg/kg/injection, schedule: Q01DX011 (ip), vehicle: carboxymethylcellulose (CMC)
  survivor count: 0 of 10

## Cn1c(=O)c2c(nc(C(O)(c3ccccc3)c3ccccc3)n2C)n(C)c1=O
dose: 150.0 mg/kg/injection, schedule: Q01DX011 (ip), vehicle: methylcellulose (MC)
  survivor count: 6 of 10
dose: 300.0 mg/kg/injection, schedule: Q01DX011 (ip), vehicle: methylcellulose (MC)
  survivor count: 2 of 10

## O=C(Nc1ccc([N+](=O)[O-])cc1)Nc1ccc([N+](=O)[O-])cc1 (tested in a mixture with another compound)
dose: 87.5 mg/kg/injection, schedule: Q01DX011 (ip), vehicle: methylcellulose (MC)
  T/C: 127 % of control
dose: 175.0 mg/kg/injection, schedule: Q01DX011 (ip), vehicle: methylcellulose (MC)
  survivor count: 6 of 10
dose: 500.0 mg/kg/injection, schedule: Q01DX011 (ip), vehicle: methylcellulose (MC)
  survivor count: 5 of 10

## CCC(=O)O[C@H]1CC[C@H]2[C@@H]3CC[C@H]4CC(=O)[C@H](C)C[C@]4(C)[C@H]3CC[C@]12C
dose: 88.25 mg/kg/injection, schedule: Q01DX011 (sc), vehicle: steroid suspending solution
  T/C: 131 % of control
dose: 125.0 mg/kg/injection, schedule: Q01DX011 (sc), vehicle: steroid suspending solution
  T/C: 131 % of control
dose: 353.0 mg/kg/injection, schedule: Q01DX011 (sc), vehicle: steroid suspending solution
  survivor count: 4 of 10
dose: 500.0 mg/kg/injection, schedule: Q01DX011 (sc), vehicle: steroid suspending solution
  T/C: 138 % of control
dose: 1000.0 mg/kg/injection, schedule: Q01DX011 (sc), vehicle: steroid suspending solution
  survivor count: 3 of 10

## CCN(CC)c1ccc(/C=C/c2ccnc3ccccc23)cc1
dose: 3.0 mg/kg/injection, schedule: Q01DX011 (ip), vehicle: carboxymethylcellulose (CMC)
  survivor count: 6 of 10
dose: 5.0 mg/kg/injection, schedule: Q01DX011 (ip), vehicle: other
  survivor count: 6 of 10
dose: 6.05 mg/kg/injection, schedule: Q01DX011 (ip), vehicle: carboxymethylcellulose (CMC)
  survivor count: 1 of 10
dose: 10.35 mg/kg/injection, schedule: Q01DX011 (ip), vehicle: carboxymethylcellulose (CMC)
  survivor count: 3 of 10
dose: 12.1 mg/kg/injection, schedule: Q01DX011 (ip), vehicle: carboxymethylcellulose (CMC)
  survivor count: 6 of 10
dose: 12.9 mg/kg/injection, schedule: Q01DX011 (ip), vehicle: carboxymethylcellulose (CMC)
  survivor count: 2 of 10
[1]
  survivor count: 1 of 10
dose: 16.66 mg/kg/injection, schedule: Q01DX011 (ip), vehicle: carboxymethylcellulose (CMC)
  survivor count: 2 of 10
dose: 20.0 mg/kg/injection, schedule: Q01DX011 (ip), vehicle: other
  survivor count: 5 of 10 and 6 of 10
dose: 24.2 mg/kg/injection, schedule: Q01DX011 (ip), vehicle: carboxymethylcellulose (CMC)
  survivor count: 1 of 10
dose: 25.8 mg/kg/injection, schedule: Q01DX011 (ip), vehicle: carboxymethylcellulose (CMC)
  survivor count: 1 of 10
dose: 25.8 mg/kg/injection, schedule: Q01DX011 (ip), vehicle: other
  survivor count: 5 of 10

## OC1CC([CH2][Hg][I])OC([CH2][Hg][I])C1 (centres undefined)
dose: 100.0 mg/kg/injection, schedule: Q01DX011 (ip), vehicle: carboxymethylcellulose (CMC)
  survivor count: 0 of 10
dose: 200.0 mg/kg/injection, schedule: Q01DX011 (ip), vehicle: carboxymethylcellulose (CMC)
  survivor count: 0 of 10

## CN1CC(=O)NC1=O
dose: 2000.0 mg/kg/injection, schedule: Q01DX011 (ip), vehicle: saline
  survivor count: 3 of 10

## CC(=O)Nc1c(Cl)c(Cl)c2c(c1Cl)C(=O)c1cc(Cl)ccc1-2
dose: 100.0 mg/kg/injection, schedule: Q01DX011 (ip), vehicle: other
  T/C: 129 % of control
dose: 200.0 mg/kg/injection, schedule: Q01DX011 (ip), vehicle: methylcellulose (MC)
  survivor count: 3 of 10
dose: 400.0 mg/kg/injection, schedule: Q01DX011 (ip), vehicle: methylcellulose (MC)
  survivor count: 3 of 10
